Test results as given in paper PMC12040169 (PLOS Biology, 2025).
The list shows a part of the results.

What follows are compounds tested on T1, CTL2-GFP (C. trachomatis L2/434/Bu, GFP-expressing). Settings: bulk GFP, single well; 28.5 h, 10 µM; inhibitor.
T1 construct: L2/434/Bu, GFP-expressing
Design: species or system HeLa; Intracellular C. trachomatis growth in HeLa cells, bulk GFP fluorescence relative to DMSO
In the case of O=C(Nc1ccccc1C(=O)O)c1ccc(-c2ccc(Cl)cc2Cl)o1 [CBK078453], the “% of control remaining” value is reported as 72.6917%. Cc1cc(C(C)(C)C)cc(C)c1S(=O)(=O)NCCSCCN [CBK013357] was tested, and the “% of control remaining” value was 75.3557%. With Cc1c(Cc2ccccc2)c(-n2ccnc2C)n2c(nc3ccccc32)c1C#N [CBK263144] the “% of control remaining” value was 121.488%. With c1ccc(CN2CC[C@H](c3nnc(-c4cccnc4)o3)C2)cc1 [CBK289397] the “% of control remaining” value was 129.933%. COc1cc(/C=C2\S/C(=N/c3ccc(S(N)(=O)=O)cc3)NC2=O)c(Br)cc1O [CBK265711] was tested, and the “% of control remaining” value was 100%. In the case of COc1ccccc1NC(=O)C(C)N1C(=O)c2ccccc2C1=O (stereo not drawn) [CBK261043], the “% of control remaining” value is reported as 112.138%. CCN(C#N)c1nc(NC)nc(OC)n1 [CBK265697] was tested, and the “% of control remaining” value was 105.886%. In the case of COc1ccc(CNC(C)C2COc3ccccc3O2)c(OC)c1 (stereo not drawn) [CBK074283G], the “% of control remaining” value is reported as 129.802%. With CNC(=O)c1sc2ccccc2c1C1CCN(C(=O)Cc2coc3c(C)c(C)ccc23)C1 (stereo not drawn) [CBK285876] the “% of control remaining” value was 106.605%. With CCC1CCCCN1C(=O)c1ccc(OC)c(OC)c1 (stereo not drawn) [CBK084527] the “% of control remaining” value was 121.05%. In the case of O=C(Nc1ccc(N2CCNCC2)c2ccccc12)c1ccccc1 [CBK028412T], the “% of control remaining” value is reported as 108.789%. With Cc1nn(CC(C)C)c(C)c1CCC(=O)NCc1nnc2ccccn12 [CBK305719] the “% of control remaining” value was 94.5728%. In the case of CN(C)CC(c1ccccc1)c1nnc2n1-c1ccc(S(C)(=O)=O)cc1C(c1ccccc1)=NC2 (stereo not drawn) [CBK005856G], the “% of control remaining” value is reported as 110.61%. With Cc1nn(CCCC(=O)O)c(C)c1I [CBK269796] the “% of control remaining” value was 106.61%. With CCn1c(C)nc2cc(NC(=O)CC3CCCCO3)ccc21 (stereo not drawn) [CBK281859] the “% of control remaining” value was 111.751%. With COc1cccc(-c2nc(SCC(=O)Nc3ccc([N+](=O)[O-])cc3)[nH]c(=O)c2C#N)c1 [CBK264912] the “% of control remaining” value was 139.77%. With CC(=O)Oc1cccc(C(=O)O)c1C [CBK038235] the “% of control remaining” value was 124.474%. With Cc1ccc(C(=O)C2=C(O)C(=O)N(CCCN3CCOCC3)C2c2ccccn2)o1 (stereo not drawn) [CBK269187] the “% of control remaining” value was 153.698%. With CCOc1ccc(C(=O)NC(=S)Nc2ncccc2C)cc1[N+](=O)[O-] [CBK264128] the “% of control remaining” value was 121.168%. In the case of Cc1nc(CCNCc2c(C)nn(C)c2N2CCOCC2)cs1 [CBK304054], the “% of control remaining” value is reported as 119.038%. In the case of Cc1sc2c(c1C)c(=O)nc1scc(CC(=O)NCCO)n12 [CBK266726], the “% of control remaining” value is reported as 137.811%. COc1nccnc1-c1cnn(C)c1 [CBK107069] was tested, and the “% of control remaining” value was 122.085%. In the case of Cc1noc(-c2ccc3c(c2O)OCCO3)c1-c1ccc(Cl)cc1 [CBK018086], the “% of control remaining” value is reported as 3.354%. In the case of Cc1ccc(C(C)C)c(OCCSc2nc3c(N)ncnc3[nH]2)c1 [CBK266941], the “% of control remaining” value is reported as 149.892%. In the case of CCc1nn(CC(=O)N2CCCCC2)c(=O)c2cc3occc3n12 [CBK283674], the “% of control remaining” value is reported as 159.248%. With O=C(c1ccc(F)cc1)c1cn(CCO)c2c(Cl)nccc12 [CBK285129] the “% of control remaining” value was 138.519%. For CCOC(=O)C1CCN(Cc2c(O)c3ccccc3oc2=O)CC1 [CBK266035], the “% of control remaining” value was 182.092%. CCOC(=O)Cc1csc(NS(=O)(=O)c2cc(Cl)c(Cl)s2)n1 [CBK000847] was tested, and the “% of control remaining” value was 117.858%. With O=C(NC(c1ccc(Cl)cc1)c1cccnc1)C1CCN(C(=O)C2CC2)CC1 (stereo not drawn) [CBK059686] the “% of control remaining” value was 108.212%. For Cc1nc2c(c(=O)[nH]1)CC[C@@H]1CN(C(=O)c3cc(F)cc(F)c3)C[C@H]21 [CBK284418], the “% of control remaining” value was 94.4549%. In the case of CCc1nc2cccnc2n1CCNC(=O)c1cccs1 [CBK283638], the “% of control remaining” value is reported as 131.509%. Cc1c(Cl)cccc1S(=O)(=O)Nc1nc(C(C)Sc2nccn2C)ns1 (stereo not drawn) [CBK200052] was tested, and the “% of control remaining” value was 116.343%. For Cn1c(=O)c2c(ncn2CC(=O)Nc2ccc(C#N)cc2)n(C)c1=O [CBK133466], the “% of control remaining” value was 107.325%. With CCCc1oc(C(=O)O)cc1CN1CCCCC1 [CBK267973C] the “% of control remaining” value was 101.877%. With Cc1nc2nc(N)nn2c(C)c1CCC(=O)OCc1cccc(C#N)c1 [CBK306083] the “% of control remaining” value was 139.138%. For CC(C)Cn1c(CN2CCOCC2)nc2c1c(=O)n(C)c(=O)n2C [CBK305913], the “% of control remaining” value was 108.586%. In the case of CSCCCNC(=O)N1CCCC(C(=O)O)C1 (stereo not drawn) [CBK161343], the “% of control remaining” value is reported as 140.218%. With CN1CC2(CCCN(Cc3nnc(-c4cccnc4)o3)C2)OC1=O (stereo not drawn) [CBK306888] the “% of control remaining” value was 117.865%. O=C(O)c1cccc(NS(=O)(=O)c2ccc(-c3cc(C(F)(F)F)on3)s2)c1 [CBK155722] was tested, and the “% of control remaining” value was 120.333%. Cn1c(=O)c2c([nH]c(=S)n2CCCc2ccccc2)n(C)c1=O [CBK288411] was tested, and the “% of control remaining” value was 82.4553%. Nc1ncc(-c2ccsc2)nc1NCc1ccncc1 [CBK063614] was tested, and the “% of control remaining” value was 195.869%. For CN(C(=O)c1ccccc1)[C@]1(C)C2CC(C[C@@H]2O)C1(C)C (stereo partly drawn) [CBK010498], the “% of control remaining” value was 90.8163%. In the case of CCC(c1ccc(F)cc1)N(C)C(=O)Cn1cccc(C(=O)Nc2ccc(F)cc2)c1=O (stereo not drawn) [CBK286061], the “% of control remaining” value is reported as 98.7225%. COCC(=O)N[C@H]1CCN2C(=O)c3cc(-c4ccc(F)cc4F)ccc3NC(=O)[C@@H]2C1 [CBK289561] was tested, and the “% of control remaining” value was 121.494%. Cc1ccc(CC(=O)N2CCC(Cc3ccc(-c4cccc(C)c4)cc3)(C(N)=O)CC2)cc1 [CBK285906] was tested, and the “% of control remaining” value was 125.694%. In the case of O=C(Nc1ccc2c(c1)OCCO2)c1cnc(-c2ccc(Cl)cc2)c(-c2cccnc2)c1 [CBK037528], the “% of control remaining” value is reported as 125.664%. O=[N+]([O-])c1ccc(CSc2nnc(-c3cccnc3)n2Cc2ccco2)cc1 [CBK264580] was tested, and the “% of control remaining” value was 130.087%. CN1CCN(C2Cc3ccccc3Sc3c(O)cccc32)CC1 (stereo not drawn) [CBK026200G] was tested, and the “% of control remaining” value was 128.518%. With O=C(CC1CCN(C(=O)CC2CCCCC2)CC1)Nc1ccccc1CN1CCCC1 [CBK286046] the “% of control remaining” value was 147.084%. With COc1ccc(-c2cc(C(F)(F)F)c3c(n2)sc2c(=O)cc(O)[nH]c23)cc1OC [CBK270201] the “% of control remaining” value was 128.256%. Cc1ccsc1C(C)NC1CCCN(c2ccn(C)n2)C1=O (stereo not drawn) [CBK306419] was tested, and the “% of control remaining” value was 100.752%. In the case of O=C1c2cccc3cccc(c23)C(=O)N1CCCSc1nnc[nH]1 [CBK268894], the “% of control remaining” value is reported as 166.547%. For N#C/C(=C\c1ccc(-c2cccc(C(=O)O)c2)o1)c1nc2ncc(Br)cc2[nH]1 [CBK265054], the “% of control remaining” value was 100%. O=C(O)CCC(=O)N1CC[C@H]2NC(=O)N(c3ccc(F)cc3)C(=O)[C@H]21 [CBK289329] was tested, and the “% of control remaining” value was 103.187%. COc1ccccc1OCCOc1ccc(/C=N/n2cnnc2)cc1 [CBK263295] was tested, and the “% of control remaining” value was 122.026%. Cc1c(C(=O)Nc2ccc(OCc3ccccc3F)cc2)sc2nc[nH]c(=O)c12 [CBK285834] was tested, and the “% of control remaining” value was 134.361%. In the case of OC(CN1CCC(O)(c2ccc(F)cc2)CC1)c1ccccc1 (stereo not drawn) [CBK282489], the “% of control remaining” value is reported as 127.74%. For COc1ccc(CC(=O)N2CCCCC2c2cc(-c3ccc(F)cc3)cc(C)n2)cc1OC (stereo not drawn) [CBK285858], the “% of control remaining” value was 84.4506%. In the case of c1ccc(Oc2ccccc2-c2ccc(Nc3ccc(N4CCOCC4)cc3)nc2)cc1 [CBK036913], the “% of control remaining” value is reported as 218.918%. CC(C)(CSc1ncccn1)NS(=O)(=O)c1ccccc1 [CBK268282] was tested, and the “% of control remaining” value was 135.373%. O=C(O)c1ccc(NS(=O)(=O)c2ccc3c(c2)OCCO3)cc1 [CBK296129] was tested, and the “% of control remaining” value was 129.935%. For CC(=O)Nc1ccc(-c2cccc(COC3CCN(C(=O)Cc4ccc(Cl)c(Cl)c4)CC3)c2)cc1 [CBK149487], the “% of control remaining” value was 109.897%. CCCOC1CCCN(C(=O)c2cc(Cl)c[nH]2)C1 (stereo not drawn) [CBK304802] was tested, and the “% of control remaining” value was 182.93%. CC(NC(=O)C1(Cn2ccnc2)CC1)c1nncn1C(C)C (stereo not drawn) [CBK306682] was tested, and the “% of control remaining” value was 100.506%. In the case of CCOc1cc(NC2CCN(C(=O)C3CCCC3)C2)ncn1 (stereo not drawn) [CBK304137], the “% of control remaining” value is reported as 80.4032%. With COc1ccc(Cn2nc(NC(C)=O)c3ccccc32)cc1 [CBK048200] the “% of control remaining” value was 101.405%. For COc1ccc(S(=O)(=O)Nc2ccc(S(=O)(=O)Nc3nccs3)cc2)c([N+](=O)[O-])c1 [CBK266801], the “% of control remaining” value was 7.985%. In the case of O=C(CC1C(=O)Nc2ncnn21)Nc1ccccc1 (stereo not drawn) [CBK288071], the “% of control remaining” value is reported as 115.485%. O=C(O)/C=C/c1cn([C@H]2C[C@@H](O)[C@@H](CO)O2)c(=O)[nH]c1=O [CBK201174] was tested, and the “% of control remaining” value was 148.013%. For O=C(O)Cc1ccc(OCC(=O)NCCCSc2ccccc2)cc1 [CBK296630], the “% of control remaining” value was 134.098%. In the case of Cc1ccc(NC(=O)CSc2cc(-n3nc(C)cc3C)ncn2)cc1 [CBK287820], the “% of control remaining” value is reported as 102.165%. With CC(C)C(=O)N1CCCC(n2c(=O)oc3ccc(Cl)cc32)C1 (stereo not drawn) [CBK282890] the “% of control remaining” value was 106.839%. COc1ccc(C(=O)NCC2(c3ccc(OC)c(OC)c3)CCCCC2)c(OC)c1 [CBK067049] was tested, and the “% of control remaining” value was 107.949%. With Cc1cc(OCC(=O)N2CCCc3c(cnn3C)C2)ccc1Cl [CBK285277] the “% of control remaining” value was 102.461%. Nc1c(Cc2c(Cl)cccc2Cl)c(=O)n2n1CCCC2 [CBK089337] was tested, and the “% of control remaining” value was 127.461%. With O=C(NCc1cccnc1)c1cc2c(ccc3ccccc32)oc1=O [CBK270195] the “% of control remaining” value was 149.277%. In the case of Cn1c(=O)c2c(ncn2CCCn2cnc3c2c(=O)n(C)c(=O)n3C)n(C)c1=O [CBK268933], the “% of control remaining” value is reported as 145.647%. With Cc1cn2c3c(=O)n(CCN4CCCCC4)c(=O)n(C)c3nc2n1CC1CCCO1 (stereo not drawn) [CBK269820] the “% of control remaining” value was 116.479%.
